Measured values as given in patent US20220089705A1.
No constants are given. Whether binding was seen depends on the method and setting. Binding seen in cells or lysates may run through a third protein. Some results given as binding are weak or reduced against the parent protein; the word gives no strength.

By UniProt entry, the sequences of proteins in these tests, tags left out.
UniProt Q9R1E0: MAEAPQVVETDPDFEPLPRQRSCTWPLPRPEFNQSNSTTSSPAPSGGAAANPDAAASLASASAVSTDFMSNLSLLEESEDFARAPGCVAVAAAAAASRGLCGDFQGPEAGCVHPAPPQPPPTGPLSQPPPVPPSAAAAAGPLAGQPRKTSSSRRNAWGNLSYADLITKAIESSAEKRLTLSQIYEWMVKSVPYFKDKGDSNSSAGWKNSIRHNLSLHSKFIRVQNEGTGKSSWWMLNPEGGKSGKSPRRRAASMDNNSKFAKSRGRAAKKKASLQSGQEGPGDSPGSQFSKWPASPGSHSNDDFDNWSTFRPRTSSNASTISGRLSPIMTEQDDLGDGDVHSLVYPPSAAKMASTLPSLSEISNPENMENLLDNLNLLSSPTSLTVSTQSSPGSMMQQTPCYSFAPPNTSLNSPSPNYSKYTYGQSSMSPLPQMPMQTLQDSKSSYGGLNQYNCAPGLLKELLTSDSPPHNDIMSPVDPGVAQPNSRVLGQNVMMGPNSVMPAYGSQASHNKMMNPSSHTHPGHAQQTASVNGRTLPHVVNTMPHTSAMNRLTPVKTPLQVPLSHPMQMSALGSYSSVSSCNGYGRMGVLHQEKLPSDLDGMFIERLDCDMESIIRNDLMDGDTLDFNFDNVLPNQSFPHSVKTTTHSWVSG
UniProt P56546: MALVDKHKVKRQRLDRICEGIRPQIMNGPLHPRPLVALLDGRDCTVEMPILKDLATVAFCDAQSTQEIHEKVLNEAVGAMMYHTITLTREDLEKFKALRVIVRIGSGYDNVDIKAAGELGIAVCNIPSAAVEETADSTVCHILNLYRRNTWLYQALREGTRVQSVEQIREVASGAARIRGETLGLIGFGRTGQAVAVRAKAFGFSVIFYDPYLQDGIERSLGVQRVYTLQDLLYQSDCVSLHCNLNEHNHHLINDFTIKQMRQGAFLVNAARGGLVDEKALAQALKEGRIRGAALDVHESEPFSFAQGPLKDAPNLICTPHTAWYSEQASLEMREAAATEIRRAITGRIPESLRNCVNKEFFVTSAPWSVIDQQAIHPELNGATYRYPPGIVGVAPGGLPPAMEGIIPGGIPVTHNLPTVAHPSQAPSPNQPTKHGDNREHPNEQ

Columns and labels:
[1] = biological target: FoxO1, endogenous (mouse primary hepatocytes and mouse liver) (mouse) (UniProt Q9R1E0); assay: co-immunoprecipitation of the endogenous complex from primary hepatocytes
[2] = biological target: FoxO1, endogenous (mouse primary hepatocytes and mouse liver) (mouse) (UniProt Q9R1E0); assay: co-immunoprecipitation of the native complex from primary hepatocytes treated with or without 50 µg/ml aP2 and with or without forskolin for 2 h; IP anti-CtBP2, Western blot for FoxO1
[3] = biological target: FoxO1, endogenous (mouse primary hepatocytes and mouse liver) (mouse) (UniProt Q9R1E0); assay: co-immunoprecipitation of the endogenous complex from liver of mice given recombinant aP2
[4] = biological target: FoxO1, endogenous (mouse primary hepatocytes and mouse liver) (mouse) (UniProt Q9R1E0); assay: co-immunoprecipitation of the endogenous complex from mouse liver homogenates
[5] = biological target: CtBP2, endogenous (mouse primary hepatocytes and mouse liver) (mouse) (UniProt P56546); assay: co-immunoprecipitation from mouse liver homogenate (lean NC mice, HFD mice given vehicle or monoclonal aP2 antibody CA33); IP anti-FoxO1, Western blot for CtBP2
[6] = biological target: CtBP2, endogenous (mouse primary hepatocytes and mouse liver) (mouse) (UniProt P56546); assay: co-immunoprecipitation with anti-FoxO1 from liver homogenates of mice on normal chow or high fat diet, blot CtBP2
[7] = biological target: CtBP2, endogenous (mouse primary hepatocytes and mouse liver) (mouse) (UniProt P56546); assay: densitometric quantification of the co-immunoprecipitation blot of FIG. 36G (mouse liver)
[8] = biological target: CtBP2, endogenous (mouse primary hepatocytes and mouse liver) (mouse) (UniProt P56546); assay: densitometric ratio of co-precipitated CtBP2 to precipitated FoxO1 of the blot of FIG. 36A
[9] = biological target: CtBP2, endogenous (mouse primary hepatocytes and mouse liver) (mouse) (UniProt P56546); assay: co-immunoprecipitation from mouse liver homogenate (aP2 KO or WT mice, NC or HFD); IP anti-FoxO1, Western blot for CtBP2
[10] = biological target: CtBP2, endogenous (mouse primary hepatocytes and mouse liver) (mouse) (UniProt P56546); assay: densitometric quantification of the co-immunoprecipitation blot of FIG. 36J (mouse liver)
[11] = biological target: CtBP2, endogenous (mouse primary hepatocytes and mouse liver) (mouse) (UniProt P56546); assay: densitometric quantification of the co-immunoprecipitation blot of FIG. 36E (mouse liver)
[12] = biological target: CtBP2, endogenous (mouse primary hepatocytes and mouse liver) (mouse) (UniProt P56546); assay: co-immunoprecipitation from liver homogenate of lean wild-type mice given vehicle or recombinant aP2 for 5 days; IP anti-FoxO1, Western blot for CtBP2
[13] = biological target: CtBP2, endogenous (mouse primary hepatocytes and mouse liver) (mouse) (UniProt P56546); assay: co-immunoprecipitation with anti-FoxO1 from primary hepatocytes treated with or without 50 µg/ml aP2 and 2 µM forskolin, blot CtBP2
[14] = biological target: CtBP2, endogenous (mouse primary hepatocytes and mouse liver) (mouse) (UniProt P56546); assay: densitometric ratio of co-precipitated CtBP2 to precipitated FoxO1 of the blot of FIG. 36C
[15] = biological target: CtBP2, endogenous (mouse primary hepatocytes and mouse liver) (mouse) (UniProt P56546); assay: co-immunoprecipitation with anti-FoxO1 from liver homogenates of lean and ob/ob mice, blot CtBP2

Measured: binding

CtBP2, endogenous (mouse primary hepatocytes and mouse liver) (from UniProt P56546 1-445)
binds: [1] | [2] | [3] | [4]

FoxO1, endogenous (mouse primary hepatocytes and mouse liver) (from UniProt Q9R1E0 1-652)
not listed: [1] | [2] | [3] | [4]
binds: all other assays above
